This test deals with T1, Exo (exonuclease) (bacteriophage lambda), P03697.
T1 chain: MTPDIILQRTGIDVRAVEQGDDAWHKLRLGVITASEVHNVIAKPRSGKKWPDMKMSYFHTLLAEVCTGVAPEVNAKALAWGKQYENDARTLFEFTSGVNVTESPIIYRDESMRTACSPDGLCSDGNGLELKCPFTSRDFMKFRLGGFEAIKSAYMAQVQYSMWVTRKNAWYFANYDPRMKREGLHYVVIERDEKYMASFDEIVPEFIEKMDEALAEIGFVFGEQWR
Put plainly: two-hybrid; array-based yeast two-hybrid screens; each protein as bait (Gal4 DNA-binding domain) and as prey (Gal4 activation domain), N- and C-terminal fusions; bait-prey vector pairs pDEST32-pDEST22, pGBKT7g-pGADT7g, pGBKT7g-pGADCg, pGBKCg-pGADCg, pGBKCg-pGADT7g; ten configurations a pair; positives retested. The conditions noted are these: remark: other sources report otherwise.

No constants are given. Whether binding was seen depends on the method and setting.

B1: Bet (= β, strand annealing protein), P03698 1-261 (protein)
chain: MSTALATLAGKLAERVGMDSVDPQELITTLRQTAFKGDASDAQFIALLIVANQYGLNPWTKEIYAFPDKQNGIVPVVGVDGWSRIINENQQFDGMDFEQDNESCTCRIYRKDRNHPICVTEWMDECRREPFKTREGREITGPWQSHPKRMLRHKAMIQCARLAFGFAGIYDKDEAERIVENTAYTAERQPERDITPVNDETMQEINTLLIALDKTWDDDLLPLCSQIFRRDIRASSELTQAEAVKALGFLKQKAAEQKVAA
B1: the binding entry is on record as “no binding”.

(Values after publication PMC3224144.)
